# Measurements taken from the supplement of paper PMC8728848.
# The other results are listed elsewhere or left out.
# B1: KCR (Mus musculus), P70194 (protein)
# chain: MKEAELNRDMARYCTDNQCVSLQPQGLGPKSAALMAPRTLRHVQVILALMVVTVIFSLLALFVVASQPWRPEWNKEPPSLLLRGSNNSGHDNHSQFVRETEMQVAIQRLRDYEENSSSCHKEVQILKYQMDNVSSLVQLLGSHLEDVNADILQTKDVLKESGALALETQALRSSLEVASADIHSLRGDLEKANAMTSQTRGLLKSSTENTSAELHVLGRGLEEAQSEIQALRGSLQSANDLSSQTQGFLQHSMDNISAQIQTVRDGMERAGEKMNSLKKELETLTAQTQKANGHLEQTDAQIQGLKAELKSTSSLNSRIEVVNGQMKDASRELQTLRRDLSDVSALKSNVQMLQSNLQRAKTEMQTLKADLQATKALTAKIQGEQNRLGALQEAVAAQKQEQKTQNQVLQLIAQNWKYFNGNFYYFSRDKKPWREAEKFCTSQGAHLASVTSQEEQAFLVQTTSSGDHWIGLTDQGTEGIWRWVDGTPFNNAQSKGFWGKNQPDNWRHRNGEREDCVHVRQQWNDMACGSSYPWVCKKSTGWSAARVG
# Columns and labels:
# Test in all cases: glycan array binding signal (z-score within array); higher = stronger binding
# Conditions in all cases: glycan notation: IUPAC condensed, linker removed
# [1] = molecular target: Neu5Ac(a2-3)GalNAc(b1-4)GlcNAc
# Summary of the method: (§1)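 The binding signal is a Z-score computed within each array and averaged over linkers. Arrays of the same protein sequence at different concentrations or buffers were also averaged together. Data originate from 3228 arrays in the Consortium for Functional Glycomics database, kept only where the protein sequence was available.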
# [2] = molecular target: Neu5Ac(a2-3)[GalNAc(b1-4)]Gal(b1-4)Glc
# Summary of the method: as §1
# [3] = molecular target: Neu5Ac(a2-3)[GalNAc(b1-4)]Gal(b1-4)GlcNAc
# Summary of the method: as §1
# [4] = molecular target: Neu5Ac(a2-3)[Neu5Ac(a2-6)]GalNAc
# Summary of the method: as §1
# [5] = molecular target: Neu5Ac(a2-6)Gal(b1-4)GlcNAc
# Summary of the method: as §1
# [6] = molecular target: Neu5Ac(a2-6)Gal(b1-4)GlcNAc(b1-2)Man(a1-3)[Neu5Ac(a2-6)Gal(b1-4)GlcNAc(b1-2)Man(a1-6)]Man(b1-4)GlcNAc(b1-4)GlcNAc
# Summary of the method: as §1
# [7] = molecular target: Neu5Ac(a2-6)Gal(b1-4)GlcNAc(b1-3)Gal(b1-4)GlcNAc
# Summary of the method: as §1
# [8] = molecular target: Neu5Ac(a2-6)Gal(b1-4)GlcNAc(b1-3)Gal(b1-4)[Fuc(a1-3)]GlcNAc(b1-3)Gal(b1-4)[Fuc(a1-3)]GlcNAc
# Summary of the method: as §1
# [9] = molecular target: Neu5Ac(a2-6)Gal(b1-4)GlcNAc6S
# Summary of the method: as §1
# [10] = molecular target: Neu5Ac(a2-6)GalNAc
# Summary of the method: as §1
# [11] = molecular target: Neu5Ac(a2-6)GalNAc(b1-4)GlcNAc
# Summary of the method: as §1
# [12] = molecular target: Neu5Ac(a2-8)Neu5Ac
# Summary of the method: as §1
# [13] = molecular target: Neu5Ac(a2-8)Neu5Ac(a2-3)Gal(b1-4)Glc
# Summary of the method: as §1
# [14] = molecular target: Neu5Ac(a2-8)Neu5Ac(a2-3)[GalNAc(b1-4)]Gal(b1-4)Glc
# Summary of the method: as §1
# [15] = molecular target: Neu5Ac(a2-8)Neu5Ac(a2-8)Neu5Ac
# Summary of the method: as §1
# [16] = molecular target: Neu5Ac(a2-8)Neu5Ac(a2-8)Neu5Ac(a2-3)Gal(b1-4)Glc
# Summary of the method: as §1
# [17] = molecular target: Neu5Ac(a2-8)Neu5Ac(a2-8)Neu5Ac(a2-3)[GalNAc(b1-4)]Gal(b1-4)Glc
# Summary of the method: as §1
# [18] = molecular target: Neu5Ac(a2-8)Neu5Ac(a2-8)Neu5Ac(a2-8)Neu5Ac(a2-3)[GalNAc(b1-4)]Gal(b1-4)Glc
# Summary of the method: as §1
# [19] = molecular target: Neu5Ac9Ac(a2-6)Gal(b1-4)GlcNAc
# Summary of the method: as §1
# [20] = molecular target: Neu5Gc(a2-3)Gal(b1-3)GlcNAc
# Summary of the method: as §1
# [21] = molecular target: Neu5Gc(a2-3)Gal(b1-3)[Fuc(a1-4)]GlcNAc
# Summary of the method: as §1
# [22] = molecular target: Neu5Gc(a2-3)Gal(b1-4)Glc
# Summary of the method: as §1
# [23] = molecular target: Neu5Gc(a2-3)Gal(b1-4)GlcNAc
# Summary of the method: as §1
# [24] = molecular target: Neu5Gc(a2-3)Gal(b1-4)[Fuc(a1-4)]GlcNAc
# Summary of the method: as §1
# [25] = molecular target: Neu5Gc(a2-6)Gal(b1-4)GlcNAc
# Summary of the method: as §1
# [26] = molecular target: Neu5Gc(a2-6)GalNAc
# Summary of the method: as §1
binder,measurement,setting,value
B1,glycan array binding signal (z-score),[1],-0.414
same,glycan array binding signal (z-score),[2],0.128
same,glycan array binding signal (z-score),[3],-0.33
same,glycan array binding signal (z-score),[4],-0.434
same,glycan array binding signal (z-score),[5],-0.39
same,glycan array binding signal (z-score),[6],0.412
same,glycan array binding signal (z-score),[7],-0.191
same,glycan array binding signal (z-score),[8],0.362
same,glycan array binding signal (z-score),[9],1.02
same,glycan array binding signal (z-score),[10],-0.378
same,glycan array binding signal (z-score),[11],-0.369
same,glycan array binding signal (z-score),[12],-0.725
same,glycan array binding signal (z-score),[13],-0.032
same,glycan array binding signal (z-score),[14],0.414
same,glycan array binding signal (z-score),[15],-0.671
same,glycan array binding signal (z-score),[16],-0.692
same,glycan array binding signal (z-score),[17],0.254
same,glycan array binding signal (z-score),[18],0.482
same,glycan array binding signal (z-score),[19],-0.053
same,glycan array binding signal (z-score),[20],-0.329
same,glycan array binding signal (z-score),[21],-0.68
same,glycan array binding signal (z-score),[22],-0.204
same,glycan array binding signal (z-score),[23],-0.288
same,glycan array binding signal (z-score),[24],-0.371
same,glycan array binding signal (z-score),[25],-0.025
same,glycan array binding signal (z-score),[26],-0.414

# Nothing new here: entries from further up.
binder,measurement,setting,value
B1,glycan array binding signal (z-score),[17],0.254
same,glycan array binding signal (z-score),[18],0.482
